Measured values from patent US8470806B2, “Perhexiline for treating chronic heart failure” (Heart Metabolics Limited, priority 2004, dated 2013).

System: patients with CHF
Experiment: Cardiopulmonary exercise test (treadmill, Weber protocol, respiratory gas analysis)
Assay type: in vivo, human
Details: Post, after 8 weeks
Excerpt: An embodiment of the invention will now be described by way of example only wherein a double-blind, randomised, placebo-controlled study was undertaken in order to investigate the effects of perhexiline on chronic heart failure. 56 patients with CHF were recruited and all provided written informed consent. Entry criteria were as follows: left ventricular ejection fraction (LVEF) <40%, optimally medicated heart failure with New York Heart Association (NYHA) Class II-III symptoms. Cardiopulmonary exercise testing with respiratory gas analysis, completion of the Minnesota Living with Heart Failure Questionnaire (MLHFQ) and 2-D echocardiography were performed at baseline on all patients. Incremental exercise testing with assessment of respiratory gas exchange was performed on a treadmill using the Weber protocol. Breath by breath respiratory gases were measured during exercise using a Pulmolab EX670 system mass spectrometer which was calibrated before every study. Raw data were averaged to 30 second intervals and oxygen consumption during peak exercise was obtained (VO2 max; ml/kg/min). Electrocardiograms and blood pressure were monitored throughout. Exercise was terminated at the subject's request due to fatigue or breathlessness. […] Data were analyzed with SPSS 11.5 for Windows® and expressed as mean±standard error of mean. […]

Structure (SMILES): C1CCC(C(CC2CCCCN2)C2CCCCC2)CC1 (stereo not shown) [Perhexiline, 2-(2,2-dicyclohexylethyl)piperidine]
- Peak Exercise Heart Rate: 120 ± 5 min⁻¹
